We go through two substances from PMC4113361.

Chains of the proteins cited; added tags and fusions are not shown. Residues count along the entry.
UniProt P17787, residues 26-502: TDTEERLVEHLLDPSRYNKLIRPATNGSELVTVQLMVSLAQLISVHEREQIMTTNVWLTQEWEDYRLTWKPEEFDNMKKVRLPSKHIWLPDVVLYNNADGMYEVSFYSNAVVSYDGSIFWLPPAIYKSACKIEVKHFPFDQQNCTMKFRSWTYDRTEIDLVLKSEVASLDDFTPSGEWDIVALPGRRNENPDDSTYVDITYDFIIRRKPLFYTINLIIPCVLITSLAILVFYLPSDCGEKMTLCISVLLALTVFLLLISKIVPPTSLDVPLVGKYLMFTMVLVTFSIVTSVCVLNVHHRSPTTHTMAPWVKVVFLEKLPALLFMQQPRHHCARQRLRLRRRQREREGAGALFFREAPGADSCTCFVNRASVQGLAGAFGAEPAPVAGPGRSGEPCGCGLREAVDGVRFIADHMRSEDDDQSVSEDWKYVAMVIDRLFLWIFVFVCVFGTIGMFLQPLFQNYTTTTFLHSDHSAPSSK
UniProt Q05901, residues 22-458: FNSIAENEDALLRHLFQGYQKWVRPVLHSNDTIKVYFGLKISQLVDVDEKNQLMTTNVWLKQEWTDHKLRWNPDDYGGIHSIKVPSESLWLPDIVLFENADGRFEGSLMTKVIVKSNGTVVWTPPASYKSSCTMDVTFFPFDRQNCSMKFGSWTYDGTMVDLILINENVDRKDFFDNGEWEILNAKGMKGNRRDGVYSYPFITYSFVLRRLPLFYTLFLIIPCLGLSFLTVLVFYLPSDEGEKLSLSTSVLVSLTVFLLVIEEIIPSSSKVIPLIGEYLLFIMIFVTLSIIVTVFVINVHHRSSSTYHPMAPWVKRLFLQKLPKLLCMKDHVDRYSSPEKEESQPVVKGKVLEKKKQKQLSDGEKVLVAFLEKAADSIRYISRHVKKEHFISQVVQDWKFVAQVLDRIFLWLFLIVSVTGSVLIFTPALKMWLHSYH
UniProt Q15825, residues 26-494: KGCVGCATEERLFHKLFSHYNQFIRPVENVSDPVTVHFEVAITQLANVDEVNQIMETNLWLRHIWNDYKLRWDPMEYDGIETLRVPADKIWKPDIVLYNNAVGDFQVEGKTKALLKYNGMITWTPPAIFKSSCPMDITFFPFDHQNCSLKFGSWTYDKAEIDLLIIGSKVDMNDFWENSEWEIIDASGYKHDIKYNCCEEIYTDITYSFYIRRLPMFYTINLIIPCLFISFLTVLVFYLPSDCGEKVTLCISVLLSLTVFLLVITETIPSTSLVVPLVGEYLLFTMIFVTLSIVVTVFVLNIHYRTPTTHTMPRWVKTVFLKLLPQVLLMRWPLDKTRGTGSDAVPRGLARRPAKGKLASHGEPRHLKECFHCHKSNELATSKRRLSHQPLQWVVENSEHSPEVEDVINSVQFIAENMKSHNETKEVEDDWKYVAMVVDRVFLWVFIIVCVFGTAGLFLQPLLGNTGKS

These are yes or no findings as the source states them, for the method shown. Some binding calls cover weakened binding; strength is not graded here.

Experiment [1] deals with human nicotinic acetylcholine receptor β2 subunit (free subunit) (human) (UniProt P17787). The experiment can be described thus: sucrose gradient sedimentation; Triton X-100 extracts of 30-50 oocytes on 5-20% sucrose gradients, 16 h at 40,000 rpm, 4°C; fractions immunoisolated on mAb 295-coated wells (β2 held) and labelled with 2 nM 3H epibatidine; Torpedo AChR monomers and dimers as internal standards.

The target is the same in experiment [2]. The experiment can be described thus: immunoisolation on antibody-coated microwells read by 3H epibatidine binding; Triton X-100 extracts of oocyte membranes (6 days after cRNA injection, α6:β2:β3 1:1:1) on mAb 295-coated wells (β2 held), 2 nM 3H epibatidine, PBS with 0.5% Triton X-100, overnight at 4°C; ACh binding sites as read-out of α6 with β2.
Experiment [3] concerns the target human nicotinic acetylcholine receptor β3 subunit (free subunit) (human) (UniProt Q05901). The experiment can be described thus: immunoisolation on antibody-coated microwells read by 3H epibatidine binding; detergent-solubilised AChRs from oocytes on mAb 210-coated wells (β3 held) compared with mAb 295-coated wells (β2 held); bound AChRs assayed by 3H epibatidine.

Take “human nicotinic acetylcholine receptor α6 subunit (free native subunit) (from UniProt Q15825 26-494)”: the binding result in experiment [1] and in experiment [2] was “binds” in each case.
As to “human nicotinic acetylcholine receptor β2 subunit (free subunit) (from UniProt P17787 26-502)”, the binding entry in experiment [3] was “binds”.
